Results published in paper PMC11905121.
No constants are given. Whether binding was seen depends on the method and setting. Binding seen in cells or lysates may run through a third protein. Some binding calls cover weakened binding; strength is not graded here.

By UniProt entry, the sequences of proteins in these tests, tags left out. Residues count along the entry.
UniProt Q8R4B8: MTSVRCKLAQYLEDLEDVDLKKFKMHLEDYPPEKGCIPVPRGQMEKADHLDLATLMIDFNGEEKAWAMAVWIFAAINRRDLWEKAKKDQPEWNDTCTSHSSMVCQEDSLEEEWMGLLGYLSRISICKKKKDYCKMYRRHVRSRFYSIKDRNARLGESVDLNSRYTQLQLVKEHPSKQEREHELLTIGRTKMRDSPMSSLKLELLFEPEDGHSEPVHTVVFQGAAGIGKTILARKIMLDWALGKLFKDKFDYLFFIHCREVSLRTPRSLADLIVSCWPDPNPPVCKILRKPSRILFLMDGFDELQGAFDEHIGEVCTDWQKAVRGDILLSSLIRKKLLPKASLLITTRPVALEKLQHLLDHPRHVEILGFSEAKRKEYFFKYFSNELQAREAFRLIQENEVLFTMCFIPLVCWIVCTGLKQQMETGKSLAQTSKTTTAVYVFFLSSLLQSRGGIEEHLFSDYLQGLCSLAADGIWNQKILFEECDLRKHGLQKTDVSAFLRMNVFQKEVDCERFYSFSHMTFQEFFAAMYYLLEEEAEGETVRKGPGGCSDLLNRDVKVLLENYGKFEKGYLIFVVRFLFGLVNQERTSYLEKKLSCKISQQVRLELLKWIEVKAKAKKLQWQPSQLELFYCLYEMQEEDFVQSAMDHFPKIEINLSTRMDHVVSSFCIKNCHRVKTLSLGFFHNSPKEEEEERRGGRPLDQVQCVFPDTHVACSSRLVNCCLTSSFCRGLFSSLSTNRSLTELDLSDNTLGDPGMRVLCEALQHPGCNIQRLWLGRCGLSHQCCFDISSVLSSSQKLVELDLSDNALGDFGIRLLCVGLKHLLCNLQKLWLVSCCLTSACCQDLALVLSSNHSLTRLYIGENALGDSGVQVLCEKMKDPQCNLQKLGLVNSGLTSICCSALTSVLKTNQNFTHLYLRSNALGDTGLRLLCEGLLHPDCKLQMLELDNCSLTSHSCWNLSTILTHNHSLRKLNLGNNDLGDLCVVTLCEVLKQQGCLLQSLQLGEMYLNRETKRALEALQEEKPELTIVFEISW
UniProt P48759, residues 18-381: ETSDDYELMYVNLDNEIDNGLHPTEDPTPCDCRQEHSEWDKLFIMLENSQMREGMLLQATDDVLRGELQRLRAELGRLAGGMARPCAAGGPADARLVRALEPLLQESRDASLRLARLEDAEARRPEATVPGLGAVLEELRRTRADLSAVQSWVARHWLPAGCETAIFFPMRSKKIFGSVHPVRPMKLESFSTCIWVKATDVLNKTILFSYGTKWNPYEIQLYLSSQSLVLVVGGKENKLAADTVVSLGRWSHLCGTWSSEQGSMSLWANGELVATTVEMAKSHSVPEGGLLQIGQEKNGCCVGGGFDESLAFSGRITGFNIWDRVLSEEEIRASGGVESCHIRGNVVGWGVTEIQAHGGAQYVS

Biological target: NLRP3 (mouse (endogenous in primary mouse cardiomyocytes)) (UniProt Q8R4B8)
Experiment: co-IP; cell lysates prepared with a Co-immunoprecipitation Kit (abs955, Absin), pre-cleared; specific primary antibody against the target protein, IgG as control; precipitate analysed by Western blotting; bait not stated

binding: binds
Substance: PTX3 (Pentaxin 3) (from UniProt P48759 18-381)
